# Source: US20250177533A1, “PHOTODYNAMIC THERAPY AND DIAGNOSIS” (RMW CHO Group Limited, priority 2021, published 2025)
# Test system: Human ovarian cancer cell line SKOV3
# Assay: Phototoxicity in SKOV3 cells (660 nm laser or LED, AlamarBlue viability)
# Format: cell-based
# Conditions: calculated using phototoxicity IC90 vs dark toxicity IC10, SKOV3; phototoxicity by LED where marked *
# Text: All data are shown as mean±SD (where appropriate).
# Media was then replaced with fresh media containing AlamarBlue, and % viable cells remaining assessed as above. […] All measurements were made in quadruplicate.
molecule,measurement,value
"CCC1=C(C)c2cc3[nH]c(cc4nc(c(C)c5cc(C)c(cc1n2)[nH]5)[C@@H](CCC(=O)N(C)CCOCCOCCOCCOCCOCCOC)[C@@H]4C)c(C)c3CO[C@@H]1O[C@H](CO)[C@@H](O)[C@H](O)[C@H]1O [Compound 25, phyllochlorin 13-hydroxymethyl-β-D-glucoside ether-β-D-glucosel-N-methyl-N-3,6,9,12,15,18-hexaoxanonadecyl propylamide]",Therapeutic Index,1.91
"CCC1=C(C)c2cc3[nH]c(cc4nc(c(C)c5cc(C)c(cc1n2)[nH]5)[C@@H](CCC(=O)OC)[C@@H]4C)c(C)c3C(C)OCCCS[C@@H]1O[C@H](CO)[C@@H](O)[C@H](O)[C@H]1O (stereo partly drawn) [Compound 1, methyl 3-((7S,8S)-18-ethyl-2,5,8,12,17-pentamethyl-13-(1-(3-(((2S,3R,4S,5S,6R)-3,4,5-trihydroxy-6-(hydroxymethyl)tetrahydro-2H-pyran-2-yl)thio)propoxy)ethyl)-7H,8H-porphyrin-7-yl) propanoate]",Therapeutic Index,225.00
"CCC1=C(C)c2cc3[nH]c(cc4nc(c(C)c5cc(C)c(cc1n2)[nH]5)[C@@H](CCC(=O)N(C)CCCO[C@@H]1O[C@H](CO)[C@@H](O)[C@H](O)[C@H]1O)[C@@H]4C)c(C)c3CO[C@@H]1O[C@H](CO)[C@@H](O)[C@H](O)[C@H]1O [Compound 12, phyllochlorin 13-hydroxymethyl-β-D-glucoside ether-β-D-glucosyl-N-methylpropylamide]",Therapeutic Index,6.99
"CCC1=C(C)c2cc3[nH]c(cc4nc(c(C)c5cc(C)c(cc1n2)[nH]5)[C@@H](CCC(=O)N(C)CCCO)[C@@H]4C)c(C)c3C(C)OCCCS[C@@H]1O[C@H](CO)[C@@H](O)[C@H](O)[C@H]1O (stereo partly drawn) [Compound 2, phyllochlorin N-3-hydroxypropyl-N-methyl propylamide propyloxythio-D-glucose]",Therapeutic Index,254.67
"CCC1=C(C)c2cc3[nH]c(cc4nc(c(C)c5cc(C)c(cc1n2)[nH]5)[C@@H](CCC(=O)N(C)CCCS[C@@H]1O[C@H](CO)[C@@H](O)[C@H](O)[C@H]1O)[C@@H]4C)c(C)c3C(C)O (stereo partly drawn) [Compound 26, 13-hydroxyethylphyllochlorin-β-D-1-thioglucose-N-methylpropylamide]",Therapeutic Index,86.90
CCC1=C(C)c2cc3[nH]c(cc4nc(c(C)c5cc(C)c(cc1n2)[nH]5)[C@@H](CCC(=O)N(C)CCCOCCC[P+](c1ccccc1)(c1ccccc1)c1ccccc1)[C@@H]4C)c(C)c3CO [Compound 18],Therapeutic Index,627.57
"CCC1=C(C)c2cc3[nH]c(cc4nc(c(C)c5cc(C)c(cc1n2)[nH]5)[C@@H](CCC(=O)OC)[C@@H]4C)c(C)c3CO[C@@H]1O[C@H](CO)[C@@H](O[C@H]2O[C@H](CO)[C@@H](O)[C@H](O)[C@H]2O)[C@H](O)[C@H]1O [Compound 8, phyllochlorin 13-hydroxymethyl-β-D-maltose ether methyl ester]",Therapeutic Index,11.19
CCC1=C(C)c2cc3[nH]c(cc4nc(c(C)c5cc(C)c(cc1n2)[nH]5)[C@@H](CCC(=O)N(C)CCCOCCC[P+](c1ccccc1)(c1ccccc1)c1ccccc1)[C@@H]4C)c(C)c3CO[C@@H]1O[C@H](CO)[C@@H](O)[C@H](O)[C@H]1O [Compound 19],Therapeutic Index,5.00
"CCC1=C(C)c2cc3[nH]c(cc4nc(c(C)c5cc(C)c(cc1n2)[nH]5)[C@@H](CCC(=O)N(C)CCCO)[C@@H]4C)c(C)c3CO[C@@H]1O[C@H](CO)[C@@H](O)[C@H](O)[C@H]1O [Compound 6, phyllochlorin N-3-hydroxypropyl-N-methyl-propylamide 13-hydroxymethyl-β-D-glucoside ether]",Therapeutic Index,6.29
"CCC1=C(C)c2cc3[nH]c(cc4nc(c(C)c5cc(C)c(cc1n2)[nH]5)[C@@H](CCC(=O)OC)[C@@H]4C)c(C)c3COC(=O)NCCC[P+](c1ccccc1)(c1ccccc1)c1ccccc1 [Compound 45, phyllochlorin methyl ester 13-(N-(3-triphenylphosphoniumpropyl)bromide)carbamate]",Therapeutic Index,"3,314.17"
"CCC1=C(C)c2cc3[nH]c(cc4nc(c(C)c5cc(C)c(cc1n2)[nH]5)[C@@H](CCC(=O)OC)[C@@H]4C)c(C)c3C=O [Compound 30, phyllochlorin 13-formyl methyl ester]",Therapeutic Index,20.16
"CCC1=C(C)c2cc3[nH]c(cc4nc(c(C)c5cc(C)c(cc1n2)[nH]5)[C@@H](CCC(=O)N(C)CCOCCOCCOC)[C@@H]4C)c(C)c3COC(=O)NCCCCCC[P+](c1ccccc1)(c1ccccc1)c1ccccc1 [Compound 43, phyllochlorin 13-(6-(triphenylphosphonium bromide)hexyl)carbamate N-methyl-N-3,6,9-trioxadecyl propylamide]",Therapeutic Index,140.21
"CCC1=C(C)c2cc3[nH]c(cc4nc(c(C)c5cc(C)c(cc1n2)[nH]5)[C@@H](CCC(=O)N(C)C[C@H](O)[C@@H](O)[C@H](O)[C@H](O)CO)[C@@H]4C)c(C)c3CO[C@@H]1O[C@H](CO)[C@@H](O)[C@H](O)[C@H]1O [Compound 10, phyllochlorin N-meglumine-propylamide-13-hydroxymethyl-β-D-glucoside ether]",Therapeutic Index,3.16
"phyllochlorin 13-(N-(3-(3-triphenylphosphoniumpropoxy)propyl)chloride)carbamate N-methyl-N-3,6,9-trioxadecyl propylamide [Compound 44]",Therapeutic Index,98.30
"CCC1=C(C)c2cc3[nH]c(cc4nc(c(C)c5cc(C)c(cc1n2)[nH]5)[C@@H](CCC(=O)OC)[C@@H]4C)c(C)c3C(C)OCCC[n+]1ccccc1 (stereo partly shown) [Compound 20, phyllochlorin methyl ester 3-pyridinium bromide propyl ether]",Therapeutic Index,666.00
"CCC1=C(C)c2cc3[nH]c(cc4nc(c(C)c5cc(C)c(cc1n2)[nH]5)[C@@H](CCCO)[C@@H]4C)c(C)c3CO[C@@H]1O[C@H](CO)[C@@H](O)[C@H](O)[C@H]1O [Compound 35, phyllochlorin 3-hydroxypropyl-13-hydroxymethyl-β-D-glucoside ether]",Therapeutic Index,35.35
"CCC1=C(C)c2cc3[nH]c(cc4nc(c(C)c5cc(C)c(cc1n2)[nH]5)[C@@H](CCC(=O)N(C)CCOCCOCCOC)[C@@H]4C)c(C)c3CO [Compound 42, phyllochlorin 13-hydroxymethyl N-methyl-N-3,6,9-trioxadecyl propylamide]",Therapeutic Index,17.36
"CCOC(=O)CC[C@@H]1c2nc(cc3[nH]c(cc4nc(cc5[nH]c(cc5C)c2C)C(CC)=C4C)c(COC(=O)NCCC[P+](c2ccccc2)(c2ccccc2)c2ccccc2)c3C)[C@H]1C [Compound 53, phyllochlorin ethyl ester 13-(N-(3-triphenylphosphoniumpropyl)bromide)carbamate]",Therapeutic Index,"2,909.09"
"CCC1=C(C)c2cc3[nH]c(cc4nc(c(C)c5cc(C)c(cc1n2)[nH]5)[C@@H](CCC(=O)OC)[C@@H]4C)c(C)c3C(C)OCCOCC[P+](c1ccccc1)(c1ccccc1)c1ccccc1 (stereo partly shown) [Compound 23, phyllochlorin methyl ester 2-(2-triphenylphosphoniumethoxy)ethyl ether chloride]",Therapeutic Index,257.17
"CCC1=C(C)c2cc3[nH]c(cc4nc(c(C)c5cc(C)c(cc1n2)[nH]5)[C@@H](CCC(=O)OC)[C@@H]4C)c(C)c3COC(=O)NCCCCCC[P+](c1ccccc1)(c1ccccc1)c1ccccc1 [Compound 39, phyllochlorin methyl ester 13-(6-(triphenylphosphonium bromide)hexyl)carbamate]",Therapeutic Index,"3,557.22"
"CCC1=C(C)c2cc3[nH]c(cc4nc(c(C)c5cc(C)c(cc1n2)[nH]5)[C@@H](CCCO)[C@@H]4C)c(C)c3CO [Compound 32, phyllochlorin 13-hydroxymethyl-3-hydroxypropyl]",Therapeutic Index,426.10
"CCC1=C(C)c2cc3[nH]c(cc4nc(c(C)c5cc(C)c(cc1n2)[nH]5)[C@@H](CCC(=O)OC)[C@@H]4C)c(C)c3COC(=O)NCC[P+](c1ccccc1)(c1ccccc1)c1ccccc1 [Compound 46, phyllochlorin methyl ester 13-(N-(2-triphenylphosphoniumethyl)bromide)carbamate]",Therapeutic Index,912.14
"C=Cc1c(C)c2cc3nc(c(C)c4[nH]c(cc5nc(cc1[nH]2)C(C)=C5CC)c(C)c4C(=O)O)[C@@H](CCC(=O)O)[C@@H]3C [Chlorin e4 disodium, reference compound]",Therapeutic Index,1.89
"CCC1=C(C)c2cc3[nH]c(cc4nc(c(C)c5cc(C)c(cc1n2)[nH]5)[C@@H](CCC(=O)OC)[C@@H]4C)c(C)c3CO[C@@H]1O[C@H](CO)[C@@H](O)[C@H](O)[C@H]1O [Compound 4, phyllochlorin 13-hydroxymethyl-β-D-glucoside ether methyl ester]",Therapeutic Index,7.83
"C=Cc1c(C)c2cc3nc(c(CC(=O)N[C@@H](CC(=O)O)C(=O)O)c4[nH]c(cc5nc(cc1[nH]2)C(C)=C5CC)c(C)c4C(=O)O)[C@@H](CCC(=O)O)[C@@H]3C [Talaporfin sodium, reference compound]",Therapeutic Index,0.49
"CCC1=C(C)c2cc3[nH]c(cc4nc(c(C)c5cc(C)c(cc1n2)[nH]5)[C@@H](CCC(=O)N(CCOCCOCCOC)CCOCCOCCOC)[C@@H]4C)c(C)c3CO [Compound 13, phyllochlorin 13-hydroxymethyl-N,N-bis-PEG3OMe propylamide]",Therapeutic Index,144.30
"CCC1=C(C)c2cc3[nH]c(cc4nc(c(C)c5cc(C)c(cc1n2)[nH]5)[C@@H](CCC(=O)N(CCOCCOCCOC)CCOCCOCCOC)[C@@H]4C)c(C)c3CO[C@@H]1O[C@H](CO)[C@@H](O)[C@H](O)[C@H]1O [Compound 14, phyllochlorin 13-hydroxymethyl-β-D-glucoside ether-N,N-bis-PEG3OMe propylamide]",Therapeutic Index,3.37
"CCC1=C(C)c2cc3[nH]c(cc4nc(c(C)c5cc(C)c(cc1n2)[nH]5)[C@@H](CCC(=O)O)[C@@H]4C)c(C)c3CO [Compound 17, phyllochlorin 13-hydroxymethyl]",Therapeutic Index,28.06
